# Source: PubChem BioAssay AID540275 (National Center for Advancing Translational Sciences (NCATS), 2011)
# Amino acid sequences for entries named in this document (tags omitted).
# UniProt Q8NER1, whole entry, looked up: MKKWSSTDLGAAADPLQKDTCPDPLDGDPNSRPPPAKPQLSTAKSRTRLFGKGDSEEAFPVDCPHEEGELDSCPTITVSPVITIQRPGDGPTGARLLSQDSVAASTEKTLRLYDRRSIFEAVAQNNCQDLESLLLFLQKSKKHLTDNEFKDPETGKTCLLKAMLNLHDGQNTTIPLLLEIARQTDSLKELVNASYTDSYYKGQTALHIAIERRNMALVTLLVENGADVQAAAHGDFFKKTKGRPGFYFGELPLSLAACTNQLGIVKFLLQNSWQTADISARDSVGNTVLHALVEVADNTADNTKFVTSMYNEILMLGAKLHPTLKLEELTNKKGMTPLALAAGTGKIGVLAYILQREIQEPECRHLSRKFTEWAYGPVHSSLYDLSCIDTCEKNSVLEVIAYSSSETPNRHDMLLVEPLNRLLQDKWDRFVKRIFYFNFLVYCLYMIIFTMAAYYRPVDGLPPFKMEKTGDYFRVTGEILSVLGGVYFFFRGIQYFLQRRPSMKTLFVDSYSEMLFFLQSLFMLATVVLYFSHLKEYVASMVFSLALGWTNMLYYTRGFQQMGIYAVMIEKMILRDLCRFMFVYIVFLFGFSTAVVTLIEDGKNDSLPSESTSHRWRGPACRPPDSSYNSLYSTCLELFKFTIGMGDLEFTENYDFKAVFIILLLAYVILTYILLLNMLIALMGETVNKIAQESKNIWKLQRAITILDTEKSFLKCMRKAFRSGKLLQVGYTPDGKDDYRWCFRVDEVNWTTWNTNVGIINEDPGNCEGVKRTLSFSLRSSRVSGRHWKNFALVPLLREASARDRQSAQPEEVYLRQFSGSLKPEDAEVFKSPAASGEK
# The campaign covered roughly 320,000 compounds. About 620 (0.19%) were called active. Inconclusive means that the source gave no clear call. Such entries were picked first, then a sample of the others. No stated cut-off is given here; in the data, active means activation above about 80%; inconclusive means between about 30% and that limit; inactive means weaker than that.
# Biological target: Transient receptor potential cation channel subfamily V member 1 (Homo sapiens) (UniProt Q8NER1)
# Assay: HTS Assay for Compounds that Act as Agonists of the Vanilloid Receptor 1; further: 0% is about no effect
# Details: TRPV1-expressing cells, Fluo-8 calcium influx, agonist mode; at 8.33 µM, hits give high values
# Excerpt: The transient receptor potential ion channel, family V, number 1, (TRPV1) is one of the most important molecular transducers of painful stimuli and a potential target for analgesic drug development. Although recent clinical trials with orthosteric antagonists have not produced a successful drug because of a hyperthermia side effect and their tendency to block thermal noxious pain, this ion channel is undeniably well placed in the pain pathway, and the idea of blocking pain signals before they enter the CNS is an excellent concept and of proven efficacy when TRPV1 agonists are used. We propose a new approach involving allosteric modulation to impose an activity-dependent constraint within the context of inflammation and tissue damage that would alter the responsiveness of the channel in a way that an orthosteric vanilloid antagonist cannot achieve. We believe that the allosteric modulator approach has not been explored for this target. The main goal of this proposal is to identify additional, new, potent allosteric modulators of TRPV1 that can be used to investigate TRPV1 function. Our recent report provides evidence of proof of concept, but the compounds are just at the edge of utility in terms of potency. […] The question of whether they can be used as analgesic agents is complex, but if suitable compounds are identified then testing for analgesic properties will be conducted. NIH Chemical Genomics Center [NCGC] NIH Molecular Libraries Probe Centers Network [MLPCN] MLPCN Grant: MH089480-1A1 Assay Submitter (PI): Michael Iadarola, National Institute of Dental and Cranofacial Research
# Upon TRPV1 activation in TRPV1 cells, the channel opens and extracellular cations flow through the channel into the cytosol. A calcium binding dye (Fluo-8) becomes fluorescent when bound to calcium. This dye is pre-loaded into cells and is used as a marker for calcium influx. The amount of accumulated calcium is precisely quantified using the FDSS kinetic reader and the calcium dye. For the HTS assay, freshly prepared cells are plated at a density of 2000/well in 3 ul medium in 1536-well plates and cultured overnight at 35.5C. Cells will be loaded with 1 ul of the homogeneous calcium dye (ABD Bioquest) at room temperature for 40 to 90 minutes. Plates will be loaded into the FDSS kinetic reader and a 1 sec / cycle for 10 second baseline signal will be measured. Compound library will then be added with a pintool at 23 nl and measured kinetically for 3 minutes. This portion of the read is considered the agonist portion of the screen. Following the 3 minutes of incubation, an on board pipettor will deliver 1 ul of capsaicin for a final concentration equal to the EC20. Signal will be measured kinetically for an additional 2 minutes. This portion of the read is considered the allosteric enhancer portion of the screen. The FDSS reader has a standard filter set capable of measuring calcium bound Fluo-8 (ex=480 and em=520 nm).
row,Structure (SMILES),activation
1,S=C(NCc1ccncc1)Nc1cccc(Cl)c1,inconclusive: 62.8%
2,O=C(CN1CCCCC1)Nc1cccc(Oc2ccccc2)c1,inconclusive: 30.3%
3,COC(=O)Sc1nc(N2CCOCC2)c2c(c1C#N)CC(C)(C)OC2,inconclusive: 40.5%
4,C(=N\Nc1nc(Nc2ccccc2)nc(Nc2ccccc2)n1)/c1cccnc1,inconclusive: 32.4%
5,CC(C)Sc1nc2ccc(N3C(=O)C4CCCCC4C3=O)cc2s1 (centres undefined),inconclusive: 50%
6,C[C@H]1CCC(=O)N([C@H](CSc2ccccc2)Cc2ccccc2)CC1,inconclusive: 42.9%
7,O=C(CCCn1c(=S)[nH]c2ccsc2c1=O)NCCc1ccccc1,inactive: -1.07%
8,CSc1ncc(C(=O)Nc2ccc(Cl)cc2)c(C)n1,inconclusive: 35.7%
9,O=C(NC12CC3CC(CC(C3)C1)C2)C1CCCN1C(=O)NC1CCCCC1 (centres undefined),inconclusive: 35.7%
10,COCCNC(=O)C1=NOC(Cn2cc(C#N)c(=O)n(C)c2=O)C1 (centres undefined),inactive: -2.23%
11,OC1CCN(c2c3c(nc4cc(-c5ccc(F)cc5)nn24)CCC3)CC1,inconclusive: 33.8%
12,COc1ccc(/C=C/C(=O)NCc2cn(C)nc2C)cc1COc1ccc(Cl)cc1Br,inconclusive: 57.9%
13,CCCCC(CC)CNC(=O)c1ccc2c(c1)OCO2 (centres undefined),inconclusive: 71.8%
14,COc1cccc(CN(C)C(=O)c2cc(COc3ccc(-n4cncn4)cc3)on2)c1,inconclusive: 49.4%
15,COC1(NS(=O)(=O)c2ccc(Br)cc2)C(C)=CC(=O)C=C1C,inconclusive: 34.1%
16,CC1CCCN(S(=O)(=O)c2ccc(NC(=O)CNC3CCCC3)cc2)C1 (centres undefined),inactive: 5.57%
17,N=C1C(c2nc3ccccc3[nH]2)=C(O)CN1C1CCCCC1,inconclusive: 41.2%
18,Cc1cnc(NC(=O)CSc2c(Cl)cccc2Cl)s1,inconclusive: 37.5%
19,COc1ccc(NC(=O)c2ccc(S(=O)(=O)N(C)C)cc2)cc1,inconclusive: 77.7%
20,O=C1/C(=C/c2cccnc2)Oc2cc(OS(=O)(=O)c3ccc(F)cc3)ccc21,inconclusive: 56.2%
21,COC(=O)c1ccc(Nc2ncnc3c2cnn3-c2cccc(C)c2)cc1,inactive: 1.21%
22,O=C(Nc1ccc(Cl)cn1)Nc1cccs1,inconclusive: 40.1%
23,Cc1[nH]c2ccccc2c1C(=O)CSC(=S)N1CCCCC1,inconclusive: 35%
24,COc1ccc(OC)c(NC(=O)CCn2c(=S)[nH]c3ccccc3c2=O)c1,inactive: 12.2%

# Part of the list above, reformatted:
row	Structure (SMILES)	activation
6	C[C@H]1CCC(=O)N([C@H](CSc2ccccc2)Cc2ccccc2)CC1	inconclusive: 42.9%
7	O=C(CCCn1c(=S)[nH]c2ccsc2c1=O)NCCc1ccccc1	inactive: -1.07%
8	CSc1ncc(C(=O)Nc2ccc(Cl)cc2)c(C)n1	inconclusive: 35.7%
9	O=C(NC12CC3CC(CC(C3)C1)C2)C1CCCN1C(=O)NC1CCCCC1 (centres undefined)	inconclusive: 35.7%
10	COCCNC(=O)C1=NOC(Cn2cc(C#N)c(=O)n(C)c2=O)C1 (centres undefined)	inactive: -2.23%

# (listing goes on)

row,Structure (SMILES),activation
1,O=C(NCC1CCCO1)c1ccc(-c2ccccc2Cl)o1 (centres undefined),inconclusive: 78%
2,O=C(/C=C/c1cccc(Cl)c1)c1nc2ccccc2[nH]1,inactive: 3.09%
3,COc1ccc(NC2CCCN(C(=O)CCOc3ccccc3)C2)cc1 (centres undefined),active: 81.7%
4,Cc1ccc(NC(=O)CCc2nc3ccccc3s2)c(O)c1,inconclusive: 43.1%
5,CSCC[C@H](NC(=O)OC(C)(C)C)c1nnc(SCC=C(C)C)o1,inconclusive: 46.2%
6,CCN1C(=NCCc2ccc(Br)cc2)N[C@@H](c2ccccc2)[C@H](C(=O)OC)[C@H]1C,inactive: 1.83%
7,O=C(Nc1cccnc1Cl)c1ccc(Cl)cc1,inactive: 8.45%
8,COc1ccc(CNC(=O)COC(=O)c2ccc(OCc3c(C)noc3C)cc2)cc1OC,inconclusive: 48.6%
9,COc1ccc(NS(=O)(=O)c2cc(NC(=O)c3ccco3)ccc2N2CCCC2)cc1,inconclusive: 31.8%
10,CCn1nnc(NC(=O)COc2cc(C)ccc2C(C)C)n1,inconclusive: 33%
11,O=C(Nc1cccc(O)c1)c1cc(-c2cccs2)on1,inconclusive: 55.9%
12,Cc1ccc(C2CC(c3ccc(Cl)cc3)=NNC2=O)cc1 (centres undefined),inactive: 4.04%
13,CNC(=O)c1csc(-c2ccc(Cl)cc2)n1,active: 84.3%
14,Cc1nn(C)c(C)c1CNC(=O)c1cnn2c1NC(c1ccccc1)CC2C(F)(F)F (centres undefined),inconclusive: 34.6%
15,c1ccc(CCn2c(C3CC3)nc3ccccc32)cc1,inconclusive: 56.5%
16,O=C(Nc1cccc(F)c1)c1ccc2c(c1)OCCO2,inconclusive: 52.1%
17,CCC(C)NC(=O)Nc1ccc(F)c(Cl)c1 (centres undefined),inconclusive: 50%
18,C=CCN(c1ccccc1Cl)S(=O)(=O)c1cc(C(=O)N2CCCC2)ccc1Cl,inconclusive: 51.6%
19,COc1ccc(CN2C(=O)c3cccnc3C2Nc2ccc(OC)c(Cl)c2)cc1 (centres undefined),inconclusive: 36.6%
20,O=C(CCN1C(=O)c2ccc([N+](=O)[O-])cc2C1=O)Nc1ccccc1C(=O)O,inactive: 2.01%
21,Cc1ccc2sc(N(CCCN(C)C)C(=O)CN3C(=O)c4ccccc4C3=O)nc2c1C,inactive: 4.05%
22,O=C(N/N=C\c1ccc(Cl)s1)c1cccs1,inconclusive: 45.4%
23,CCCC(=O)Nc1nc(-c2ccccc2)ns1,inconclusive: 52.4%
24,O=C(COC(=O)/C=C/c1ccc(Cl)cc1)Nc1ccc2c(c1)OCCO2,inconclusive: 45.4%

row,Structure (SMILES),activation
1,Cc1ccc(C(=O)CN2C(=O)C(=O)N(Cc3ccccc3)C2=O)cc1,inconclusive: 31.1%
2,COc1ccc(CNC(=O)COC(=O)c2cc3ccccc3o2)cc1,inconclusive: 30%
3,CC(C)(C)c1ccc(C(=O)Nc2cccnc2)cc1,active: 94.5%
4,CCCNC(=O)COC(=O)c1cccnc1Nc1ccccc1F,inconclusive: 41.3%
5,CCc1ccc(-c2nn(Cc3ccccc3)cc2C(=O)NCC2CCCO2)cc1 (centres undefined),inconclusive: 60.8%
6,O=C(Nc1ccccc1)C1C2CCC3C(CCC21)C3(Cl)Cl (centres undefined),inconclusive: 42.9%
7,CCOC(=O)c1c(C)[nH]c(C(=O)OC)c1CCC(=O)OC,inactive: -8.03%
8,CCCCN(Cc1ccco1)S(=O)(=O)c1csc(C(N)=O)c1,inactive: 4.23%
9,CC[C@H](C)Cc1cn([C@@H](CCCN=C(N)N)C(=O)NCCCCCCCCCCC(=O)N2CCNCC2)nn1,inactive: 5.19%
10,O=C(Nc1ccc2ccccc2c1)c1ccc(NS(=O)(=O)c2ccc(Br)s2)cc1,inconclusive: 47.5%
11,COC(=O)c1c(C)[nH]c(C(=O)COC(=O)Cc2ccc3c(c2)OCCO3)c1C,inconclusive: 33.8%
12,O=C/C(=C\Nc1ccccn1)c1nc2ccccc2o1,inconclusive: 55.3%
13,COc1ccc(CNC(=S)Nc2cccc(F)c2)cc1,active: 87.6%
14,Cc1ccc(-n2c(=O)c3ccccc3n(CC(=O)NCc3ccco3)c2=O)cc1,inactive: -0.965%
15,Nc1ccc(-c2nc3c(ccc4ccccc43)[nH]2)cc1,inconclusive: 42.7%
16,COCCn1nnnc1C(c1cccs1)N1CCN2CCCC2C1 (centres undefined),inconclusive: 66.8%
17,CCCn1nc(NC(=O)c2cccs2)c2cc3cccc(C)c3nc21,inconclusive: 44.3%
18,Cc1ccc(OCCCSc2n[nH]c(N)n2)cc1,inconclusive: 50.3%
19,O=C1OC(c2ccccc2)=N/C1=C\N1CCCCC1,inconclusive: 48.2%
20,CCN(Cc1ccccc1)C(=O)CCCOc1ccccc1,inconclusive: 50%
21,S=C(NCC1CCCCC1)Nc1cccnc1,inconclusive: 43.3%
22,O=C(CCN1C(=O)/C(=C/c2ccccc2)SC1=S)Nc1cccnc1,inconclusive: 38.7%
23,N#Cc1ccc(C(=O)Nc2ccn(-c3ccccc3)n2)cc1,inconclusive: 54.5%
24,Cc1cc(C(=O)COC(=O)c2ccc(O)cc2)c(C)n1CC(F)(F)F,inconclusive: 39%

row,Structure (SMILES),activation
1,O=C(c1cc2c(s1)-c1ccccc1OC2)N1CCCC1,inconclusive: 49.1%
2,COc1ccc(NC(=O)CN(C)C(=O)CNC(=O)c2sc3ccccc3c2Cl)cc1,inconclusive: 41.3%
3,CCCCOc1ccc(C(=O)N2CCCCCC2)cc1,inconclusive: 46.7%
4,CC1(c2ccccc2)CC(C)(C)N(C(=O)CSc2nnc(N)s2)c2ccccc21 (centres undefined),inconclusive: 32.7%
5,c1ccc(-c2nnc(SCc3nc4ccccc4[nH]3)n2Cc2ccco2)cc1,inconclusive: 32.3%
6,O=C(CCNC(=O)c1ccc(Cl)cc1)NCCC1=CCCCC1,inconclusive: 59.9%
7,CCN1CCN(c2c(Cl)cccc2NC(=O)c2ccc3c(c2)OCCO3)CC1,inconclusive: 32%
8,Cc1ccc(CONC(=O)c2cccc([N+](=O)[O-])c2)cc1,inconclusive: 32.5%
9,COc1ccccc1N1CCN(C(=O)Cc2ccc(Cl)cc2)CC1,inconclusive: 42.9%
10,CCOC(=O)c1sc(Nc2ccccc2)nc1C,inconclusive: 49%
11,CC(NC(=O)COC(=O)CSc1ccc(F)cc1)c1ccc(F)cc1 (centres undefined),inconclusive: 53.5%
12,COc1ccccc1Nc1cc(C(=O)NCc2cccnc2)c2ccccc2n1,inconclusive: 45.9%
13,C=CCn1c(SCC(=O)N2CCc3ccccc3C2)nc2sc(C)c(C)c2c1=O,inconclusive: 31.5%
14,Cc1ccc(NC(=O)c2sc(=S)n(-c3cc(C)ccc3F)c2N)cc1,inconclusive: 35.3%
15,O=C(Nc1cccc(Cl)c1)c1nc[nH]c1C(=O)NCc1ccccc1,inconclusive: 42.4%
16,Clc1cccc(CNc2nnnn2-c2ccccc2)c1,inactive: 12.5%
17,CCCC(=O)NC(c1cccs1)c1cc([N+](=O)[O-])c2cccnc2c1O (centres undefined),inactive: 1.69%
18,O=C(CCC1CCCC1)Nc1ccccc1-c1ccccc1,inconclusive: 60.8%
19,O=C(NC1CCCCC1)N1CCC(c2nc3ccccc3[nH]2)CC1,inactive: -6.8%
20,COc1cc(OC)cc(C(=O)N2CCCC(Nc3ccc(F)cc3)C2)c1 (centres undefined),inconclusive: 74.5%
21,C=CCc1cccc(/C=N/NC(=O)C(C)Nc2ccc(C)cc2)c1O (centres undefined),inconclusive: 37.7%
22,O=C(c1ccc(COc2ccccc2Br)cc1)N1CCCCC1,inconclusive: 46.3%
